Reference: PubChem BioAssay AID1508597 (Cure First, 2020)
Test: 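Genes whose silencing sensitises or protects ovarian cancer cells against rucaparib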 (primary screen). Cells: human ovarian carcinoma lines grown from tumours: OCI-P5x (papillary serous) and OCI-C5x (clear cell). Knock-down reagent: siRNA pool against human genes, 1.25 pmol siRNA per well. Duration: 72 h or 96 h, depending on the cell culture. Challenge: rucaparib 20 µM (about IC30) or vehicle, present until read-out. Rucaparib or vehicle: Vehicle. Cell line: OCI-P5x (serous). Read-out: 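ATP luminescence measured at 72 or 96 h according to the culture, then normalised and expressed as percent viability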. Scale: viability, normalised: higher = more viable cells remaining. Hit rule: 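Active when normalised viability falls below 80 percent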. Meaning of the calls: active = viability under 80%; inactive = viability 80% or more.
Shown is an unselected part of the about 2,100 reagents, in one setting of the screen. 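Calls flag viability under 80% in either arm, not effects specific to rucaparib; the reference for percent is not stated.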 A number with no mark means an inactive call. The record does not give: the 100% reference.

Target gene	technical replicate	viability, normalised (%)
APPL1	1	67.7 (active)
APPL1	2	63.7 (active)
APPL1	3	76.7 (active)
PBRM1 (polybromo 1)	1	50.7 (active)
PBRM1 (polybromo 1)	2	53.5 (active)
PBRM1 (polybromo 1)	3	77.1 (active)
BHLHE40 (basic helix-loop-helix family member e40)	1	52.7 (active)
BHLHE40 (basic helix-loop-helix family member e40)	2	68.2 (active)
BHLHE40 (basic helix-loop-helix family member e40)	3	69.2 (active)
CLDN8 (claudin 8)	1	59.3 (active)
CLDN8 (claudin 8)	2	66.1 (active)
CLDN8 (claudin 8)	3	112
PARP15 (poly(ADP-ribose) polymerase family member 15)	1	38.7 (active)
PARP15 (poly(ADP-ribose) polymerase family member 15)	2	29.6 (active)
PARP15 (poly(ADP-ribose) polymerase family member 15)	3	56.2 (active)
CDC5L (cell division cycle 5 like)	1	56.8 (active)
CDC5L (cell division cycle 5 like)	2	67.3 (active)
CDC5L (cell division cycle 5 like)	3	61.3 (active)
CHD3 (chromodomain helicase DNA binding protein 3)	1	68.6 (active)
CHD3 (chromodomain helicase DNA binding protein 3)	2	74.1 (active)
CHD3 (chromodomain helicase DNA binding protein 3)	3	53.3 (active)
ACTR6 (actin related protein 6)	1	49.9 (active)
ACTR6 (actin related protein 6)	2	53.5 (active)
ACTR6 (actin related protein 6)	3	59 (active)
GATAD2A (GATA zinc finger domain containing 2A)	1	79.5 (active)
GATAD2A (GATA zinc finger domain containing 2A)	2	83.1
GATAD2A (GATA zinc finger domain containing 2A)	3	86.7
SBNO1 (strawberry notch homolog 1)	1	60.2 (active)
SBNO1 (strawberry notch homolog 1)	2	58.8 (active)
SBNO1 (strawberry notch homolog 1)	3	72.4 (active)
TAF7 (TATA-box binding protein associated factor 7)	1	63.2 (active)
TAF7 (TATA-box binding protein associated factor 7)	2	71.9 (active)
TAF7 (TATA-box binding protein associated factor 7)	3	85.9
GDPD3 (glycerophosphodiester phosphodiesterase domain containing 3)	1	58.7 (active)
GDPD3 (glycerophosphodiester phosphodiesterase domain containing 3)	2	73.9 (active)
GDPD3 (glycerophosphodiester phosphodiesterase domain containing 3)	3	91.1
CASP3 (caspase 3)	1	76.4 (active)
CASP3 (caspase 3)	2	64.2 (active)
CASP3 (caspase 3)	3	86.7

Reformatted: 3 of the entries above
Target gene,technical replicate,"viability, normalised (%)"
CHD3 (chromodomain helicase DNA binding protein 3),3,53.3 (active)
ACTR6 (actin related protein 6),1,49.9 (active)
ACTR6 (actin related protein 6),2,53.5 (active)
